Article PMC4548232
Results are given in words; binding and its absence hold for the method and conditions named. Binding seen in cells or lysates may run through a third protein. Some results given as binding are weak or reduced against the parent protein; the word gives no strength.

Amino acid sequences for entries named in this document (tags omitted).
UniProt Q5NCY0: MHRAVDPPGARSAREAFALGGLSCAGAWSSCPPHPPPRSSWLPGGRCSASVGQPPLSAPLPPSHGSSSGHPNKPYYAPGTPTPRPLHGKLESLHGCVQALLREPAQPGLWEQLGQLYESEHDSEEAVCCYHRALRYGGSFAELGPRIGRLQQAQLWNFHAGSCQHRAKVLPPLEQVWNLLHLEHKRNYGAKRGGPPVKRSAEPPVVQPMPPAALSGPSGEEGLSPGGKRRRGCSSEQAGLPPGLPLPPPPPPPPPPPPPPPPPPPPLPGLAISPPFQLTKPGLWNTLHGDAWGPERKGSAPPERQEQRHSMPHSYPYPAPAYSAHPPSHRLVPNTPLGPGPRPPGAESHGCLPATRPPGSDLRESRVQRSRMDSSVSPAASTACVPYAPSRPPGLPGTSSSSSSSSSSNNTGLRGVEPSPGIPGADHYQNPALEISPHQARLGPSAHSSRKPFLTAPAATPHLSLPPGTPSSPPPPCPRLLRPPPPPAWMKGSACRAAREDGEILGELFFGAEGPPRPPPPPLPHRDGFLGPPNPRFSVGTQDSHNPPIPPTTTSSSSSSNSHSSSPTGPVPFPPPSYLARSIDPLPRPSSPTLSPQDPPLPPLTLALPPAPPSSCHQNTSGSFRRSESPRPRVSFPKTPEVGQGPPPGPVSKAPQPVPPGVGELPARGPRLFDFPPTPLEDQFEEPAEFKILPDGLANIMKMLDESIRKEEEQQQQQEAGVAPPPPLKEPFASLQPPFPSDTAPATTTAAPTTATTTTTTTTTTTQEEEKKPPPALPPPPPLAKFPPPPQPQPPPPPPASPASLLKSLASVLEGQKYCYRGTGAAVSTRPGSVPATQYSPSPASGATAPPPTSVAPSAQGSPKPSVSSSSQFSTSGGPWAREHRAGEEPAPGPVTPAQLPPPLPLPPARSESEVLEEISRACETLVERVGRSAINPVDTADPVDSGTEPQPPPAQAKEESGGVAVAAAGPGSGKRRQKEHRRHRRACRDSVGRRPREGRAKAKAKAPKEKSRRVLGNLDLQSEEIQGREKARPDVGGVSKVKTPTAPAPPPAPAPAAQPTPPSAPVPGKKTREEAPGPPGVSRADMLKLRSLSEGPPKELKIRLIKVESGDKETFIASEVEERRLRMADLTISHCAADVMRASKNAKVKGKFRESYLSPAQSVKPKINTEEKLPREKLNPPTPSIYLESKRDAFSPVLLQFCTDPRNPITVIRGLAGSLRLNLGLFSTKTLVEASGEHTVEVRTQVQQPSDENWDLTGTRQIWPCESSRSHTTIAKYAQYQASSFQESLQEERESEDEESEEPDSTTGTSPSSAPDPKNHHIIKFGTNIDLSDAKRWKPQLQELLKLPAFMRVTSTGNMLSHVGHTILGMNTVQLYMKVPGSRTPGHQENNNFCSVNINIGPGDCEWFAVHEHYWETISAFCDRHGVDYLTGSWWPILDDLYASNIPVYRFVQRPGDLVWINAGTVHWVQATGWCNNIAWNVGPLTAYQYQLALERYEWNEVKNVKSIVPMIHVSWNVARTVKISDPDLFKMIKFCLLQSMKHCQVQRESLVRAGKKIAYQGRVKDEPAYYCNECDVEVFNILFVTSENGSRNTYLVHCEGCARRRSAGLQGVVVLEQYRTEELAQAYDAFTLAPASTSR
UniProt Q08775: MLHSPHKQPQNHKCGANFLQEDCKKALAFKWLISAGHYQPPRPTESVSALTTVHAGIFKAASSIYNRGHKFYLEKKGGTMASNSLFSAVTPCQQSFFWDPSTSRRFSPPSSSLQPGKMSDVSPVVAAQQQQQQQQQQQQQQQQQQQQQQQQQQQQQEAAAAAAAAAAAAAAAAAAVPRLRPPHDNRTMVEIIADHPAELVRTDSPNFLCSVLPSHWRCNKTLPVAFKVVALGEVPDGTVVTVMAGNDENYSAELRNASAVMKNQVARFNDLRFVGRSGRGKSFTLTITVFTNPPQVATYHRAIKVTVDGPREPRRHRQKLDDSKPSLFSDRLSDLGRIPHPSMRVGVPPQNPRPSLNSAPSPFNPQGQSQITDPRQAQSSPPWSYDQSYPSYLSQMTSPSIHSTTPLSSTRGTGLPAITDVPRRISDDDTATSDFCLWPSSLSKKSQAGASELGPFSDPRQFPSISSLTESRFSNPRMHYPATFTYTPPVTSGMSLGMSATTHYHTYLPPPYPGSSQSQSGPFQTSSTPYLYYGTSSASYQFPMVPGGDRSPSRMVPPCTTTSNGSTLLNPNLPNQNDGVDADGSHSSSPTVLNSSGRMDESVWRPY

Target: JMJD3 (KDM6B) (mouse (endogenous in primary parietal osteoblasts of E18.5 embryos)) (UniProt Q5NCY0)
Test: co-IP; endogenous proteins; 5 mg lysate of primary parietal osteoblasts (E18.5 mouse embryos) incubated 2 hours with 3 ug anti-JMJD3 or anti-RUNX2 antibody, then overnight with protein A/G Plus agarose; Western blot with anti-JMJD3 and anti-RUNX2

## RUNX2 (from UniProt Q08775 1-607)
  binding: binds
